# Reference: patent US9399904B2, “Oil recovery system and method” (SHELL OIL COMPANY, priority 2013, dated 2016)
# Test: Oil recovery from oil saturated formation core by brine displacement followed by DMS displacement
# Description: Incremental recovery of oil from a formation core using an oil recovery formulation consisting of dimethyl sulfide following oil recovery from the core by water-flooding was measured to evaluate the effectiveness of DMS as a tertiary oil recovery agent.
# Two 5.02 cm long Berea sandstone cores with a core diameter of 3.78 cm and a permeability between 925 and 1325 mD were saturated with a brine having a composition as set forth in Table 7.
# After saturation of the cores with brine, the brine was displaced by a Middle Eastern Asphaltic crude oil having the characteristics as set forth above in Table 3 to saturate the cores with oil.
# Oil was recovered from each oil saturated core by the addition of brine to the core under pressure and by subsequent addition of DMS to the core under pressure. Each core was treated as follows to determine the amount of oil recovered from the core by addition of brine followed by addition of DMS. Oil was initially displaced from the core by addition of brine to the core under pressure. A confining pressure of 1 MPa was applied to the core during addition of the brine, and the flow rate of brine to the core was set at 0.05 ml/min. The core was maintained at a temperature of 50° C. during displacement of oil from the core with brine. Oil was produced and collected from the core during the displacement of oil from the core with brine until no further oil production was observed (24 hours). After no further oil was displaced from the core by the brine, oil was displaced from the core by addition of DMS to the core under pressure. DMS was added to the core at a flow rate of 0.05 ml/min for a period of 32 hours for the first core and for a period of 15 hours for the second core. Oil displaced from the core during the addition of DMS to the core was collected separately from the oil displaced by the addition of brine to the core.
# The oil samples collected from each core by brine displacement and by DMS displacement were isolated from water by extraction with dichloromethane, and the separated organic layer was dried over sodium sulfate. After evaporation of volatiles from the separated, dried organic layer of each oil sample, the amount of oil displaced by brine addition to a core and the amount of oil displaced by DMS addition to the core were weighed. Volatiles were also evaporated from a sample of the Middle Eastern asphaltic oil to be able to correct for loss of light-end compounds during evaporation.
# [1] = Core 1, DMS 0.05 ml/min for 32 hours after brine displacement
# [2] = Core 2, DMS 0.05 ml/min for 15 hours after brine displacement
structure (smiles),measurement,setting,value
"CSC [Dimethyl Sulfide, dimethyl sulfide]",Oil produced DMS displacement,[1],3.5 mL
same,Oil produced DMS displacement (of % oil initially in core),[1],32%
same,Oil produced DMS displacement,[2],3.3 mL
same,Oil produced DMS displacement (of % oil initially in core),[2],30%
